Data on one substance can be found in publication PMC9475462.

Amino acid sequences for entries named in this document (tags omitted).
UniProt P14618: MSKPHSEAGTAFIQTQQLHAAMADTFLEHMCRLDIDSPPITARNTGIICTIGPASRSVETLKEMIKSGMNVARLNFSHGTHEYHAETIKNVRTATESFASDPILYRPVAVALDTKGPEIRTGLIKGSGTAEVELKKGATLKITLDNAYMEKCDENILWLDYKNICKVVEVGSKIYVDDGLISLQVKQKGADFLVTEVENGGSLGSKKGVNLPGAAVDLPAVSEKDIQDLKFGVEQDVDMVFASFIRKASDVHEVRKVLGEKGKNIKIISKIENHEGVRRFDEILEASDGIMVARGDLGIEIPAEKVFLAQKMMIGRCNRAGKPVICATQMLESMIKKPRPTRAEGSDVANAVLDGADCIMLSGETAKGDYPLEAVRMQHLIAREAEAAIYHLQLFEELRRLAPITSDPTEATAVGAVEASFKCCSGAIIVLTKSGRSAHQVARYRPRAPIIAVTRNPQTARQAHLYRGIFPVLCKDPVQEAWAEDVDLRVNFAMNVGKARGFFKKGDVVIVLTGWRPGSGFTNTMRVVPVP

No constants are given. Whether binding was seen depends on the method and setting. In cells and extracts the contact can be indirect. Here binding means that the protein was enriched with, or labelled near, the bait; the list need not be complete. Where a sequence is shown, tags or fusion partners need not be part of it.

This test has as its target T1, FLAG-ARHGAP24 (Rho GTPase activating protein 24) (UniProt Q8N264).
T1 sequence: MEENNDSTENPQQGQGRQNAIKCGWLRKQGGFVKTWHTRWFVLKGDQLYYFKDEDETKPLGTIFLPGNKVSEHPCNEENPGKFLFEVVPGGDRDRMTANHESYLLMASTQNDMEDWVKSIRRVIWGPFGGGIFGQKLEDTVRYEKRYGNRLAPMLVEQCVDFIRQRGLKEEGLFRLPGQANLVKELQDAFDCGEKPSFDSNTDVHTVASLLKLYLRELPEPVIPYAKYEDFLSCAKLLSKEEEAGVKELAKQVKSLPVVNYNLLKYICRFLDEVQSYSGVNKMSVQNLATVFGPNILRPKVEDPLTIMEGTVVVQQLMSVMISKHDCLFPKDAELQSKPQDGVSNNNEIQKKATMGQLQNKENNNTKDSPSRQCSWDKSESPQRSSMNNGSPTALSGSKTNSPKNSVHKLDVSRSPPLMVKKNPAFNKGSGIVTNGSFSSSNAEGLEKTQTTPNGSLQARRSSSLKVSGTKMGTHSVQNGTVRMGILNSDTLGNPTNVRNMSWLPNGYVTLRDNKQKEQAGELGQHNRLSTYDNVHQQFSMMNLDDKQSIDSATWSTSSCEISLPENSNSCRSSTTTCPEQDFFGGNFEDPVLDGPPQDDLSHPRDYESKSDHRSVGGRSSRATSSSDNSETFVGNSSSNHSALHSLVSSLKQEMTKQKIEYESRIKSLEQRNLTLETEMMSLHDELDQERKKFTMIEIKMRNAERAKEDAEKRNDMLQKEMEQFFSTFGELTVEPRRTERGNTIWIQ
Briefly: affinity purification with mass spectrometry; HCCLM3 cells transfected with FLAG-ARHGAP24, immunoprecipitated with anti-FLAG antibody; IgG as non-specific control; LC-MS/MS.

With “pyruvate kinase M2 (PKM2), in HCCLM3 cells (from UniProt P14618 1-531)”, the binding result is on record as “binds”.
